{"source": "patent US10940218B2", "about": "“Treatment of meningiomas using phenylbenzothiazole, stilbene, biphenylalkyne, or pyridine derivatives” (MAYO FOUNDATION FOR MEDICAL EDUCATION AND RESEARCH, priority 2012, dated 2021)", "system": "meningiomas", "assay": "PiB PET/CT imaging of meningiomas in patients", "assay_type": "in vivo, human", "conditions": "meningiomas 5 mm and thicker vs all other tumors, 834 patients", "source_text": "An Alzheimer's imaging database of two hundred forty-one patients was reviewed. […] All patients had been imaged by at least one MRI, as well as by FDG-PET/CT and PET/CT using the compound of formula (V). MRI reports of all patients were reviewed for possible meningiomas and other tumors. […] The diagnostic confidence of the radiologists interpreting the studies varied slightly, depending on factors such as tumor location and previous imaging. […] Tumors smaller than 7 millimeters are generally considered too small to be evaluated by PET or PET/CT. This is an excepted limitation of PET or PET/CT as a modality. […] None of the meningiomas in the series would be classified as atypical or aggressive based on MRI or CT imaging. One presumed extracranial schwannoma was seen, showing mild uptake on FDG-PET/CT, but no uptake on PET/CT using the compound of formula (V). […]\nTumors found in any of the subjects were then categorized as possible meningiomas or non-meningiomas based on the reading of the reporting neuroradiologist. […]\nPET imaging was performed as part of the Mayo Clinic Study of Aging as previously described. […] Cerebral PiB retention, a marker of amyloid deposition, was measured as previously described. […]", "data": [{"smiles": "[11CH3]Nc1ccc(-c2nc3ccc(O)cc3s2)cc1", "note": "[PiB, [N-Methyl-^11C]2-(4′-methylaminophenyl)-6-hydroxybenzothiazole]", "values": [{"measurement": "sensitivity of PiB PET/CT for meningiomas", "value": 100, "unit": "%"}, {"measurement": "specificity of PiB PET/CT for meningiomas", "value": 100, "unit": "%"}]}]}
